Our source for the binding values is PMC6281615.

By UniProt entry, the sequences of proteins in these tests, tags left out.
UniProt Q96GD4: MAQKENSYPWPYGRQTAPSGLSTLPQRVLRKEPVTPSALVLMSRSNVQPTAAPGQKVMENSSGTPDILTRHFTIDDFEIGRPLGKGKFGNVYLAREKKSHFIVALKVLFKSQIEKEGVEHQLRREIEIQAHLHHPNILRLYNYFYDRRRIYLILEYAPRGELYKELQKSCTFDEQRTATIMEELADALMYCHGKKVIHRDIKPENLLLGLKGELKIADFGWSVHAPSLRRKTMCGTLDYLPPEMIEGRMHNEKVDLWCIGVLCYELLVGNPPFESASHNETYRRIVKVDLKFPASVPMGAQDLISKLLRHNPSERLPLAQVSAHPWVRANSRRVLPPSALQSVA

The assay deals with T1, Endogenous CREPT (cell line not stated) (UniProt Q9NQG5).
T1 sequence: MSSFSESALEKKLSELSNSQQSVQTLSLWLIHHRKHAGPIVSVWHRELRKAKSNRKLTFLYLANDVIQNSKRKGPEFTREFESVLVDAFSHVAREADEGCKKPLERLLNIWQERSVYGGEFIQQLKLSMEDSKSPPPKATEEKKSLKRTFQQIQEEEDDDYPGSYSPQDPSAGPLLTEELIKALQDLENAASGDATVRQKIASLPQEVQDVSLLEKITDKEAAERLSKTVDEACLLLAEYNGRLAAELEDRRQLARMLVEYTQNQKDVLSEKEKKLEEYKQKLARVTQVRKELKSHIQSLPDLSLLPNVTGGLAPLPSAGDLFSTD
Kind of assay: affinity purification with mass spectrometry; immunoprecipitation with the anti-CREPT antibody 3E10, IgG as control; SDS-PAGE, Coomassie blue, bands cut out and identified by mass spectrometry; cells not named.

These are yes or no findings as the source states them, for the method shown. In cells and extracts the contact can be indirect. A yes stands for co-enrichment or nearness to the bait. Other partners may have been found.

As for “Endogenous Aurora B (cell line not stated) (from UniProt Q96GD4 1-344) (enzyme)”, the binding result is given as “binds”.
